# Results are given in words; binding and its absence hold for the method and conditions named. In cells and extracts the contact can be indirect. Where a sequence is shown, tags or fusion partners need not be part of it.
# Amino acid sequences for entries named in this document (tags omitted). Residues count along the entry.
# UniProt P03665, residues 22-426: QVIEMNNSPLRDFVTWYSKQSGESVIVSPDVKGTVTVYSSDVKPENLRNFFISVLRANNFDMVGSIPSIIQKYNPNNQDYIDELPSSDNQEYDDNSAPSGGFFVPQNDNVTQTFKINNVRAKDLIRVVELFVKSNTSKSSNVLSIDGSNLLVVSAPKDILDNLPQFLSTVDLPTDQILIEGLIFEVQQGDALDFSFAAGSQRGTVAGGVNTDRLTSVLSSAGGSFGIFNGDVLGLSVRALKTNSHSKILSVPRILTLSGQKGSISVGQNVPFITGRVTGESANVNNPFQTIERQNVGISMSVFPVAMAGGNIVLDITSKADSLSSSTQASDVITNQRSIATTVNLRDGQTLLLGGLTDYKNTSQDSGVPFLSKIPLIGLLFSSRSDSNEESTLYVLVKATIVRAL
# Target: T1, HisG1p (M13 gene 1 protein with an N-terminal 10xhis tag) (bacteriophage M13) (UniProt P03656)
# T1 sequence: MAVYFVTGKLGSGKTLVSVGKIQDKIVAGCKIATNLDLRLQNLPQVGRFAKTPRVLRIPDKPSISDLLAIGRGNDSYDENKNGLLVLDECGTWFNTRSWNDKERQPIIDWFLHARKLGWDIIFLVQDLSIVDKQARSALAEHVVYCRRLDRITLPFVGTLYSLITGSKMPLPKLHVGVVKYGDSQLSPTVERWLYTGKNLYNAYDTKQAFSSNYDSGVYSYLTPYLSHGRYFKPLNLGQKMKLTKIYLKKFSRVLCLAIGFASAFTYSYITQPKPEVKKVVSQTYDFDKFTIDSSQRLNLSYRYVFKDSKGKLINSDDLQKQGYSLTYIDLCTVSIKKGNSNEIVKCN
# Experiment: pull-down; Ni-NTA affinity chromatography by the his tag from membranes of E. coli M15F+ (infected with M13am1) solubilised with 2% lauroyl sarcosine; beads with 10 mM imidazole and 10% glycerol, 1.5 h, 4 °C; imidazole elution; fractions on SDS-PAGE, Coomassie
substance,measurement,value
G4p secretin of bacteriophage M13 (from UniProt P03665 22-426),binding,no binding
